Reference: publication PMC7934946
These are yes or no findings as the source states them, for the method shown. Binding seen in cells or lysates may run through a third protein. Some results given as binding are weak or reduced against the parent protein; the word gives no strength. Where a sequence is shown, tags or fusion partners need not be part of it.

Sequences of proteins named here, by UniProt entry; tags and fusion partners are left off.
UniProt P06733: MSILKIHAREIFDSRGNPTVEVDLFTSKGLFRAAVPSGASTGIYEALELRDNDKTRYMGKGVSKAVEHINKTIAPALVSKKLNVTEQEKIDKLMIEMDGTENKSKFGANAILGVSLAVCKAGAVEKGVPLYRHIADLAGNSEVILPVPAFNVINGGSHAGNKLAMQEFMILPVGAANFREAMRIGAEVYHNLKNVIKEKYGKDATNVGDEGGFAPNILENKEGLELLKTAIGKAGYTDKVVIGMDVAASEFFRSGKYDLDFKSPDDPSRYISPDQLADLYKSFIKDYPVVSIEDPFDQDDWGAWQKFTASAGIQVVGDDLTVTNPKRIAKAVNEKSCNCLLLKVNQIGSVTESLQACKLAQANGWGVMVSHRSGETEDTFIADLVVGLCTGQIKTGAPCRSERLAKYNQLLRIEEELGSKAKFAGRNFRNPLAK

B1: CMTM6 (protein, UniProt Q9NX76 1-183)
chain: MENGAVYSPTTEEDPGPARGPRSGLAAYFFMGRLPLLRRVLKGLQLLLSLLAFICEEVVSQCTLCGGLYFFEFVSCSAFLLSLLILIVYCTPFYERVDTTKVKSSDFYITLGTGCVFLLASIIFVSTHDRTSAEIAAIVFGFIASFMFLLDFITMLYEKRQESQLRKPENTTRAEALTEPLNA
B2: CMTM6 (MYC-DDK tagged), from pCMV6-Entry-CMTM6 (protein, UniProt Q9NX76 1-183)
chain: MENGAVYSPTTEEDPGPARGPRSGLAAYFFMGRLPLLRRVLKGLQLLLSLLAFICEEVVSQCTLCGGLYFFEFVSCSAFLLSLLILIVYCTPFYERVDTTKVKSSDFYITLGTGCVFLLASIIFVSTHDRTSAEIAAIVFGFIASFMFLLDFITMLYEKRQESQLRKPENTTRAEALTEPLNA

Target: Enolase-1 (human (endogenous in H357CisR)) (UniProt P06733)
Assay: co-IP; cells lysed in 1% digitonin 30 min on ice; lysate with primary antibody 1-4 h, Protein A/G PLUS-Agarose overnight at 4°C; 4 washes in 0.2% digitonin; SDS-PAGE and immunoblot

Binder	binding
B1	binds
B2	binds
